Measurements taken from the supplement of paper PMC4604168 (melanoma cell lines).
The other results are listed elsewhere or left out. Repeats are few or missing, and single values can be far off.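 Cells were imaged in 1,536-well plates, and nuclei stained with an antibody against cleaved PARP were counted against all DNA-stained nuclei to give the apoptosis fraction. Screening doses were chosen to leave most cells alive, and resting and induced cleaved-PARP levels differ strongly between cell lines.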

Tested on: WM115
Test: cleaved PARP positive nuclei fraction relative to DMSO control; melanoma cells; higher = more apoptosis
Conditions: library dose: low library concentration; 72 h

Going from `CN1CCN(c2ccc3nc(-c4c(N)c5c(F)cccc5[nH]c4=O)[nH]c3c2)CC1` [Dovitinib] + COc1cc2c(Oc3ccc4[nH]c(C)cc4c3F)ncnc2cc1OCCCN1CCCC1 [cediranib] (first compound 0.1 µM, partner dose 0.4 µM) to `Cn1c(=O)n(-c2ccc(C(C)(C)C#N)cc2)c2c3cc(-c4cnc5ccccc5c4)ccc3ncc21` + OCCn1cc(-c2cnc3nnn(Cc4ccc5ncccc5c4)c3n2)cn1 [PF04217903] (first compound 0.004 µM, partner dose 1 µM), the “cleaved PARP positive nuclei fraction” value falls from 166% to 81.1%.

First: CC(C)C[C@H](NC(=O)[C@H](Cc1ccccc1)NC(=O)c1cnccn1)B(O)O [Bortezomib] + CC(C)CCN1c2nc(Nc3cc(F)c(O)c(F)c3)ncc2N(C)C(=O)C1C [BID1870] (first compound 0.001 µM, partner dose 0.2 µM)
Second: O=C(O)c1ccc2c(c1)nc(Nc1cccc(Cl)c1)c1ccncc12 + NCC(=O)Nc1ccc(-n2nc(C(F)(F)F)cc2-c2ccc3c(ccc4ccccc43)c2)cc1 [OSU03012] (first compound 0.4 µM, partner dose 1 µM)
The “cleaved PARP positive nuclei fraction” value of the first is higher: 85.7% for the first, 71.1% for the second.

Going from `Nc1ncn([C@H]2C[C@H](O)[C@@H](CO)O2)c(=O)n1` [decitabine] + Cn1cc(/C=C2\C(=O)Nc3cccnc32)c2ccccc21 [GW441756] (first compound 0.1 µM, partner dose 0.4 µM) to `CC(C)C[C@H](NC(=O)[C@H](Cc1ccccc1)NC(=O)c1cnccn1)B(O)O` [Bortezomib] + O=c1cc(-c2cccc3c2Sc2ccccc2S3)oc(N2CCOCC2)c1 [KU55933] (first compound 0.001 µM, partner dose 1 µM), the “cleaved PARP positive nuclei fraction” value falls from 149% to 148%.

Going from `CNC(=O)c1cc(Oc2ccc(NC(=O)Nc3ccc(Cl)c(C(F)(F)F)c3)cc2)ccn1` [sorafenib] + Oc1nc(-c2ccc(C(F)(F)F)cc2)nc2c1CSCC2 [XAV939] (first compound 0.4 µM, partner dose 2 µM) to `O=C(O)c1ccc2c(c1)nc(Nc1cccc(Cl)c1)c1ccncc12` + COc1ccc(-c2ccc3c(N4CCOCC4)nc(N4C[C@@H](C)O[C@@H](C)C4)nc3n2)cc1CO [KU0063794] (first compound 0.4 µM, partner dose 0.02 µM), the “cleaved PARP positive nuclei fraction” value rises from 60.4% to 108%.

First: O=C(O)[C@@H]1[O][Sb](=[O])([O][Sb]2(=[O])[O][C@H]([C@H](O)CO)[C@H](O)[C@H](C(=O)O)[O]2)[O][C@H]([C@H](O)CO)[C@@H]1O (stereo not given in full) [stibogluconate] + C=CCn1c(=O)c2cnc(Nc3ccc(N4CCN(C)CC4)cc3)nc2n1-c1cccc(C(C)(C)O)n1 [MK1775] (first compound 2 µM, partner dose 0.02 µM)
Second: Cn1c(=O)n(-c2ccc(C(C)(C)C#N)cc2)c2c3cc(-c4cnc5ccccc5c4)ccc3ncc21 + c1cc(-c2cnn3cc(-c4ccc(OCCN5CCCCC5)cc4)cnc23)ccn1 [Dorsomorphin] (first compound 0.004 µM, partner dose 0.4 µM)
The “cleaved PARP positive nuclei fraction” value of the first is higher: 158% for the first, 63% for the second.
